Measurements from “University of Dundee, Small-Polar-MMV Screening Library” (2021), ChEMBL document CHEMBL3988442.

Protein sequences, listed by entry. Tags and fused reporters are not part of them. Residues count along the entry.
UniProt A4I591, 1-473: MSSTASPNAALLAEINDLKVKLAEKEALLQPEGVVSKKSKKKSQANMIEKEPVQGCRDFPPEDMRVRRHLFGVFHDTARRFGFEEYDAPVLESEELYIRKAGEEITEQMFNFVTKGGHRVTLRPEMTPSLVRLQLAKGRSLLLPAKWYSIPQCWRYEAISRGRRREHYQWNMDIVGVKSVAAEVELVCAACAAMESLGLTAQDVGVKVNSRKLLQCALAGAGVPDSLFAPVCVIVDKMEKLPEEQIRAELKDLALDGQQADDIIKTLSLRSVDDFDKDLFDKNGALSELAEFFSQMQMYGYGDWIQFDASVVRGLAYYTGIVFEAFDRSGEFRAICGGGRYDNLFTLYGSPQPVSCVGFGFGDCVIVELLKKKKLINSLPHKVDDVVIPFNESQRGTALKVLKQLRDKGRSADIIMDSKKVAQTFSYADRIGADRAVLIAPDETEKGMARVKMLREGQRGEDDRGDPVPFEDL
UniProt I6X8D2, whole entry: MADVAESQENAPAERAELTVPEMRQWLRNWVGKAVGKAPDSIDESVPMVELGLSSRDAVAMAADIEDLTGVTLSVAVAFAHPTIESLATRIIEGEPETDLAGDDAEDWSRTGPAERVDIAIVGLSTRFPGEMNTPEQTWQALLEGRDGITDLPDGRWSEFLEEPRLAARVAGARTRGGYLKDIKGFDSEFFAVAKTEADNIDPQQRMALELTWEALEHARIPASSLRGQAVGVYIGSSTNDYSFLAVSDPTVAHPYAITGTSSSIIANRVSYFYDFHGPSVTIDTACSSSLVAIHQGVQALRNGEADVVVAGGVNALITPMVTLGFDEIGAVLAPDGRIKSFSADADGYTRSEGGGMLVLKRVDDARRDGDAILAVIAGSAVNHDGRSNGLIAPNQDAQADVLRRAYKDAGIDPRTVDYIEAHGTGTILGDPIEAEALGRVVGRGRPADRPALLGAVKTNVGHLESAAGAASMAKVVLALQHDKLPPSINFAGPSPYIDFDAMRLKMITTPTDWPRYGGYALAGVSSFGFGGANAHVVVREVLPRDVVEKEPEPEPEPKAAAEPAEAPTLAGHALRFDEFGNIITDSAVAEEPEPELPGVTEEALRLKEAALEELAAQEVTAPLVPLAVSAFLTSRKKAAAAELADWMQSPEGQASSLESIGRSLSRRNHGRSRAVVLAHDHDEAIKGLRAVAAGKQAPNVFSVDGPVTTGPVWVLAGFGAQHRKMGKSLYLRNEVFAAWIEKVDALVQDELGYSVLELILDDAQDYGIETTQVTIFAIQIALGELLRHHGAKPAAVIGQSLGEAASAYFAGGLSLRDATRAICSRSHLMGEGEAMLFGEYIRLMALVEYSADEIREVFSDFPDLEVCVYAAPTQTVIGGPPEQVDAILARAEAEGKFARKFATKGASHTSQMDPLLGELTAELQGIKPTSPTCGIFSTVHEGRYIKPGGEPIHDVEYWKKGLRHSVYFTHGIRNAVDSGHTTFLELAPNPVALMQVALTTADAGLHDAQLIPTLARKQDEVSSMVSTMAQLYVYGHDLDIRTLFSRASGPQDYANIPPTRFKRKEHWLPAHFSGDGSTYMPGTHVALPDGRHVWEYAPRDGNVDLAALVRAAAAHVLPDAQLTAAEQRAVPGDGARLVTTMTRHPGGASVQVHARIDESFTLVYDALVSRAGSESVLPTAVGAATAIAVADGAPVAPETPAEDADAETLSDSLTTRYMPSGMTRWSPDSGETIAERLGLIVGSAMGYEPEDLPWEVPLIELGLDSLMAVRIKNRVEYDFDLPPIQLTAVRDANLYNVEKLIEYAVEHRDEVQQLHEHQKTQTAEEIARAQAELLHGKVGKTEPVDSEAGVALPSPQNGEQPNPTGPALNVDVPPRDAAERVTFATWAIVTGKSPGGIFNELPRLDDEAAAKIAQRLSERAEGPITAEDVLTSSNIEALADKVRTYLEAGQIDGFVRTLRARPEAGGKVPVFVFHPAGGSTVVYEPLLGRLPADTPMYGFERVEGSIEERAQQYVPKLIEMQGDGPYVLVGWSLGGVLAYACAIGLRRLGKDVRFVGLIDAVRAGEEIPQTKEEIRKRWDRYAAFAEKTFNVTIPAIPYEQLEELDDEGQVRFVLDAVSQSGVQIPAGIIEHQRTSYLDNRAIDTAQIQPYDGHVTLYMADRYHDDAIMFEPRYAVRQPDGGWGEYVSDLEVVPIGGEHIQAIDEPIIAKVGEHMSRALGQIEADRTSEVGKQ

LiHisRS: 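Enzyme assay of histidyl-tRNA synthetase; the read-out is not stated. Target: Histidine-tRNA ligase, Leishmania infantum (UniProt A4I591). Tested at 30 µM. Direction is inferred from retests: higher values go with stronger inhibition. The assay is labelled LdHisRS but filed under L. infantum. Of about 69,000 compounds tested this way, about 410 (0.6%) reached 50% or more in at least one test.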
Pks13 thioesterase: 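Enzyme assay of the thioesterase domain of polyketide synthase 13; the read-out is not stated. Target: Polyketide synthase Pks13, Mycobacterium tuberculosis (UniProt I6X8D2). Compounds at 30 µM. Higher reads as stronger inhibition (inferred from which compounds were picked for retests). Size under these conditions: about 67,000 compounds, about 300 of them at 50% or above in at least one test.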
Leishmania in macrophages: 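Cell assay of Leishmania donovani living inside macrophages; the read-out is not stated. Tested at 30 µM. Direction is inferred from retests: higher values go with stronger inhibition. About 69,000 compounds were tested under these conditions; 1.5% (about 1,000) showed 50% or more at least once.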

Each number is a percent effect as filed. The record does not define 0% and 100%; most values in the screen are far below 50% and negative numbers occur (in some assays of this library far below -100). The compounds are a random part of those screened. Two or more numbers in one place are separate tests of the same structure; such repeats can differ widely. A dash means the value is not listed here; it may have been measured.

| # | Compound | LiHisRS | Pks13 thioesterase | Leishmania in macrophages |
|---|---|---|---|---|
| 1 | `Cc1ccc2c(c1)[C@@H](CC(=O)N(C)C)CCO2` | 22.86 | 13.21 | 19.11 & 26.77 |
| 2 | `Cc1ccc(CN2C[C@@H]3[C@@H](C2)OCC(=O)N3Cc2ccncc2)s1` | -7.273 | 5.61 | - |
| 3 | `Cc1ccc(CNC(=O)c2c[nH]nc2NC(=O)C2COCCO2)cc1` (configuration not stated) | 12.9 | -18.5 | 21.83 |
| 4 | `CCOCC1CN(C(=O)c2cccs2)Cc2cnn(CC3CC3)c21` (configuration not stated) | 5.66 | 80.56 | 11.01 |
| 5 | `Cc1cnn(CCNCC(O)c2cccc(Br)c2)c1` (configuration not stated) | 7.292 | -39.93 | 97.73 |
| 6 | `CCN(CC)C(=O)CN1CCc2nc(C3CCNCC3)nc(NC)c2C1.Cl` | - | - | 12.5 |
| 7 | `COCc1nc(-c2ccnc(N3CCNCC3)n2)no1.Cl.Cl` | - | - | 17.38 |
| 8 | `CCOCC(=O)N1CCC2(CC1)COCCN2CCN(C)C.O=C(O)C(F)(F)F.O=C(O)C(F)(F)F` | - | - | 19.29 |
| 9 | `CC(C)c1nnc(NC(=O)c2cccc(OCC(F)(F)F)n2)[nH]1` | 5.882 | -8.475 | 15.62 |
| 10 | `O=C(c1ccc2c(c1)[nH]c(=O)n2C1CCCC1)N1CC(O)C1` | 15.38 | -19.88 | 4.169 |
| 11 | `[H][C@]12CC[C@]([H])(CN(C(C)=O)C1)N(C(=O)CCc1n[nH]c3c1CCCC3)C2` | - | - | -14.71 |
| 12 | `CC(C)(CO)NCc1ccc(OCc2ccc3c(c2)OCCO3)cc1.Cl` | - | - | 14.63 |
| 13 | `CCCNC(=O)Cn1c(C)nn(C(C)(C)C)c1=O` | 16.44 | -1.175 | -11.03 |
| 14 | `O=C(Cc1c[nH]c2ncccc12)NCC(O)c1ccsc1` (configuration not stated) | 17.24 | -4.159 | 22.33 |
| 15 | `Cn1cc(C(=O)CC2CCCN2C(=O)c2ccncc2F)cn1` (configuration not stated) | 8.772 | -18.99 | 13.28 |
| 16 | `c1ccc(N2CCC(OCC3CCCCO3)CC2)nc1` (configuration not stated) | 10.62 | -9.404 | -16.71 |
| 17 | `CSCc1noc(C2CCC(=O)N(CCc3ccccc3)C2)n1` (configuration not stated) | 7.292 | -33.8 | 16.26 |
| 18 | `COc1ccccc1CNC(=O)COc1c(C)n(C)ccc1=O` | 13.16 | -22.76 | 15.08 |
| 19 | `Cc1nc(C)c(C(=O)N2Cc3ccccc3OCC2CN(C)C)o1.Cl.Cl` (configuration not stated) | - | - | 15.55 |
| 20 | `Oc1cc(C2CCCCN2CC2CC2)nc(-c2ccncc2)n1` (configuration not stated) | 11.35 | 4.005 | 9.67 |
| 21 | `COC(=O)c1cc(C(=O)N2CCC(C)CC2)n(-c2ccccc2)n1` | 12.5 | - | 8.2 |
| 22 | `CN(C)S(=O)(=O)c1ccc2c(c1)N(Cc1nccn1C)CC2` | 6.306 | -15.05 | -0.04633 |
| 23 | `O=S(=O)(N1CCCC1)N1CCCCC1CCc1ccccc1` (configuration not stated) | 11.43 | 13.27 | 11.76 |
| 24 | `O=C(C1CCCO1)N1CCc2nnc(Cn3cccc3)n2CC1` (configuration not stated) | 13.79 | -15.06 | 19.57 |
| 25 | `Cc1ccc(CN2CC[C@@H]3OCCN(Cc4ccncc4)[C@H]3CC2)s1` | 15.09 | 6.186 | - |
| 26 | `COc1cccc(-c2noc(C3CCN(Cc4cccs4)C3)n2)c1.Cl` (configuration not stated) | - | - | -30.41 |
| 27 | `O=C(NCCc1cccnc1)NCCc1cccs1` | 10.42 | -8.373 | 11.89 |
| 28 | `Cc1nc(CCC(N)=O)cc(C2CCCCN2S(C)(=O)=O)n1` (configuration not stated) | 9.396 | 49.88 | 7.448 |
| 29 | `CN(CCc1ccncc1)Cc1c(C2CCCC2)[nH]c2ncccc12` | 27.97 | - | 24.02 |
| 30 | `CSc1ccc(NC(=O)NCC(O)C(C)C)cc1F` (configuration not stated) | 2.521 | 16.78 | -26.64 |
| 31 | `Cc1ccccc1CC(=O)N1CCc2c(ncnc2N2CCOCC2)C1` | 27.27 | -3.513 | -10.29 |
| 32 | `Cn1ncc2c(N3CCN(CCC(N)=O)CC3)nc(C3CCCC3)nc21` | 12.33 | -27.69 | -6.753 |
| 33 | `CN(CCCNC(=O)c1cccc(OCC(N)=O)c1)CC(F)(F)F` | 19.18 | -21.95 | 23.92 |
| 34 | `COCc1cc(CC2(NC3CCCCC3)COC2)no1` | 11.11 | -2.189 | -14.37 |
| 35 | `CC(C)c1nc(CN2CCN(C(C)c3nc(C4CC4)no3)CC2)no1` (configuration not stated) | 0 | 4.42 | 3.998 |
| 36 | `OCC1(NCc2cnc(-c3ccccn3)s2)CCOCC1` | 7.143 | 3.995 | -4.185 |
| 37 | `CN(Cc1ccc(F)cc1)CC1(O)CCN(C(=O)c2cccn2C)C1` (configuration not stated) | 9.489 | -16.47 | -10.5 |
| 38 | `CCOCC1(CNCc2cc(O)c3cc(C)ccc3n2)CC1` | 23.26 | -8.191 | 16.15 |
| 39 | `O=C(C1CC1)N1CCCN(c2ncnc3c2CCNCC3)CC1` | 15.83 | -30.29 | 19.03 |
| 40 | `N#CC1COCCN1C(=O)c1ccc2[nH]ccc2c1` (configuration not stated) | -1.176 | -1.815 | 8.498 |
| 41 | `O=C(NCc1cccnc1N1CCCC(O)C1)c1ccsc1` (configuration not stated) | -1.205 | -3.574 | -25.36 |
| 42 | `CC1=CC[C@@H]2CN(C(=O)c3ccc(-c4cc[nH]n4)cc3)C[C@@H]2C1` | 24.59 | -21.46 | - |

3 of the entries, repeated:

O=C(C1CC1)N1CCCN(c2ncnc3c2CCNCC3)CC1 gave LiHisRS: 15.83%; Pks13 thioesterase: -30.29%; Leishmania in macrophages: 19.03%.
CN(C)S(=O)(=O)c1ccc2c(c1)N(Cc1nccn1C)CC2 gave LiHisRS: 6.306%; Pks13 thioesterase: -15.05%; Leishmania in macrophages: -0.04633%.
[H][C@]12CC[C@]([H])(CN(C(C)=O)C1)N(C(=O)CCc1n[nH]c3c1CCCC3)C2 gave Leishmania in macrophages: -14.71%.